Data as given in PubChem BioAssay AID1671195 (Yale University, 2021).

Test: 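Knockdowns that increase or decrease uptake of fluorescent LDL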 (primary screen)
System: human Huh7 hepatoma cells
Reagent: siRNA pool against human genes, 18 nM
Time to read-out: about 2 to 2.5 days of knockdown, then 8 h LDL uptake
Treatment: DiI-labelled LDL at 30 µg/ml for 8 h, in lipoprotein-deficient serum medium
Detection: 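Fluorescent LDL signal imaged in cells, scaled to the plate median, robust z-score for each replicate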
Scale: robust z-score: higher = more LDL uptake after knockdown
Call rule: 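Active when two or more replicates show a robust z-score above 2 or below -2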
Shown is a random part of about 22,000 reagents tested. Of all reagents, about 1,510 (6.9%) were called active. 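Active includes knockdowns raising or lowering LDL uptake; positive z-scores mean more uptake, negative mean less.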

FBXO17: robust z-score, replicate 1 = -0.915; robust z-score, replicate 2 = 0.394; robust z-score, replicate 3 = 0.199; activity call = inactive
LCNL1: robust z-score, replicate 1 = 0.11; robust z-score, replicate 2 = -0.168; robust z-score, replicate 3 = -0.112; activity call = inactive
TPSB2: robust z-score, replicate 1 = 0.236; robust z-score, replicate 2 = -0.167; robust z-score, replicate 3 = -0.13; activity call = inactive
KCNMA1: robust z-score, replicate 1 = 2.34; robust z-score, replicate 2 = 1.24; robust z-score, replicate 3 = 2.2; activity call = active
RPH3AL: robust z-score, replicate 1 = -0.228; robust z-score, replicate 2 = -0.59; robust z-score, replicate 3 = -0.521; activity call = inactive
LOC389624 (retired record): robust z-score, replicate 1 = -0.157; robust z-score, replicate 2 = 0.0873; robust z-score, replicate 3 = -0.0807; activity call = inactive
LOC441107 (retired record): robust z-score, replicate 1 = -0.0291; robust z-score, replicate 2 = -0.814; robust z-score, replicate 3 = -0.226; activity call = inactive
LOC157813 (retired record): robust z-score, replicate 1 = 1.15; robust z-score, replicate 2 = 0.997; robust z-score, replicate 3 = 0.0528; activity call = inactive
MPP7: robust z-score, replicate 1 = 0.0161; robust z-score, replicate 2 = -0.373; robust z-score, replicate 3 = -0.648; activity call = inactive
LRP5L: robust z-score, replicate 1 = 0.207; robust z-score, replicate 2 = 0.796; robust z-score, replicate 3 = 0.995; activity call = inactive
SYT7: robust z-score, replicate 1 = -0.914; robust z-score, replicate 2 = -1.14; robust z-score, replicate 3 = -0.876; activity call = inactive
CUL5: robust z-score, replicate 1 = 0.101; robust z-score, replicate 2 = -0.465; robust z-score, replicate 3 = -0.427; activity call = inactive

Reformatted: results already given.
Gene,"robust z-score, replicate 1","robust z-score, replicate 2","robust z-score, replicate 3",activity call
RPH3AL,-0.228,-0.59,-0.521,inactive
LOC389624 (retired record),-0.157,0.0873,-0.0807,inactive
